The source of these data is ChEMBL document CHEMBL1221228, “Norselic acids A-E, highly oxidized anti-infective steroids that deter mesograzer predation, from the Antarctic sponge Crella sp” (2009).

In this assay the test system is Candida albicans. The assay can be described thus: Antimicrobial activity against Candida albicans 54 at 100 units after 18 hrs by agar diffusion method. Format: functional, organism-based. For orientation: A growth-free zone around the sample is the usual read-out of agar diffusion tests.

Regarding NYSTATIN, the inhibition zone (IZ) came out at 15 mm.
